# From PubChem BioAssay AID504444 (National Center for Advancing Translational Sciences (NCATS), 2011)
# About 7,500 (2.1%) of roughly 360,000 compounds were called active. The inconclusive results got no clear call from the source; some entries with a clear call stand among them for comparison. Calls follow the shape of the dose curve; as a rule, active = well fitted inhibition curve with a large enough effect; inconclusive = small, poorly fitted or top-dose-only effect, or effect the other way; inactive = flat fitted curve, though single readings scatter. Potencies beside an inconclusive call are fits to weak or partial responses and may not hold up.
# Test: Nrf2 qHTS screen for inhibitors; also: nearly all actives have a fitted effect of over 60% in size
# Settings: A549 ARE-Fluc reporter, luciferase luminescence, 18-24 h; activity change, negative = inhibition: at 46 µM (top of the series)
# How it was run: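 Cells were seeded and rested 2 h, then exposed to compounds for 18-24 h. CellTiter-Fluor was read first as a viability measure. BugLite was added 15 min before the final luminescent read of ARE-luciferase activity in A549 cells.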
# % is scaled to controls: 0 for no effect and ±100 for the full control effect; potency is read from the fitted curve at half-maximal effect.
SMILES,Potency,"activity change, negative = inhibition"
CC(C)CCNC(=O)C(c1ccc(O)cc1)N(C(=O)C1COc2ccccc2O1)c1cccc(O)c1 (stereo not drawn),"inconclusive: 9.2 µM [falling, partial curve]",
Cc1ccc(NC(NC(=O)c2cccs2)C(Cl)(Cl)Cl)cc1 (stereo not drawn),"inconclusive: 29.1 µM [falling, single point]",
COc1ccc(N2CCN(C(=O)c3cccc(Br)c3)CC2)c([N+](=O)[O-])c1,"inconclusive: 8.2 µM [falling, partial curve, poor fit]",
CN(CCCNC(=O)c1cccc(N2CCCC2=O)c1)c1ccccc1,"inconclusive: 1.3 µM [falling, full curve, poor fit]",
COc1ccc2cc(-c3ccccc3)c(=O)oc2c1,"inconclusive: 29.1 µM [activator, single point]",
C=CC(=O)Nc1cccc(Oc2cc(Cl)nc3[nH]ccc23)c1,,inactive: -10.7%
CC(NS(=O)(=O)c1ccc(OCC(=O)NCc2ccncc2)cc1)c1ccccc1 (stereo not drawn),"inconclusive: 32.6 µM [activator, partial curve, poor fit]",
C[C@@H]1C(=O)O[C@H]2C[C@@]34[C@H]5C[C@@H](C(C)(C)C)[C@]36[C@@H](OC(=O)[C@@H]6O)O[C@@]4(C(=O)O5)[C@]21O,,inactive: 18.4%
COC(=O)c1ccc(/C=C2/SC(=S)N(CCC(=O)N3CCOCC3)C2=O)cc1,"inconclusive: 29.1 µM [activator, single point]",
CCCCNC(=O)C(CC)Sc1nc2sc(C(=O)OC)c(C)c2c(=O)n1N (stereo not drawn),,inactive: -1.06%
O=C(Cc1ccc(Cl)cc1)Nc1ccc2oc(-c3ccc(F)cc3)nc2c1,"inconclusive: 0.231 µM [falling, partial curve, poor fit]",
COc1ccc(N(C(=O)Cc2cccs2)C(C(=O)NC2CCCC2)c2ccncc2)cc1OC (stereo not drawn),,inactive: -34.8%
COc1c(C(=O)NNC(=O)c2ccccc2)csc1Br,"inconclusive: 23.1 µM [activator, single point]",
Cc1ccc2nc(Nc3nc(-c4ccccc4)cc(=O)[nH]3)nc(C)c2c1,"inconclusive: 0.58 µM [falling, full curve]",
O=C(Nc1ccc(OC(F)F)c(Cl)c1)c1ccccn1,"inconclusive: 9.2 µM [activator, partial curve]",
COc1ccccc1NS(=O)(=O)c1cccc(C(=O)NNC(=O)c2ccc(O)c(Cl)c2)c1,"inconclusive: 2.06 µM [activator, partial curve, poor fit]",
Nc1c(Cl)ncnc1N/N=C/c1ccccn1,active: 5.17 µM,
O=S(=O)(Nc1nc2ccccc2nc1Cl)c1cccc(C(F)(F)F)c1,"inconclusive: 18.4 µM [falling, single point]",
COc1ccc(NC(=O)CN(C)CC(=O)N(C)C2(C#N)CCC(C)CC2)cc1 (stereo not drawn),,inactive: 17.7%
COc1ccc(Nc2nc(N)nc(CSc3nccn3C)n2)cc1,"inconclusive: 0.461 µM [activator, full curve, poor fit]",
CCOc1ccc(CN(C)C(=O)c2cccnc2OCC)cc1OC,"inconclusive: 4.61 µM [falling, partial curve, poor fit]",

SMILES,Potency,"activity change, negative = inhibition"
COc1cc(C2C=C(C34CC5CC(CC(C5)C3)C4)NC(=S)N2)cc(OC)c1OC (stereo not drawn),active: 23.1 µM,
O=C(NCc1cccnc1)C1CCN(c2ccc(S(=O)(=O)N3CCOCC3)cc2Cl)CC1,"inconclusive: 23.1 µM [falling, single point]",
CCC(COC(=O)Nc1ccccc1)NC(=O)OC(C)C (stereo not drawn),"inconclusive: 18.4 µM [activator, partial curve]",
Cc1ccc(N2CCN(C(=O)c3c(C)oc4ncnc(N5CCCCC5)c34)CC2)c(C)c1,"inconclusive: 16.4 µM [falling, partial curve, poor fit]",
Cc1ccccc1C(=O)N/N=C/c1ccccn1,"inconclusive: 1.46 µM [activator, partial curve, poor fit]",
C=CCN(CC=C)S(=O)(=O)c1ccc(C(=O)Nc2sc3c(c2C(N)=O)CCCCC3)cc1,"inconclusive: 20.6 µM [falling, partial curve]",
COc1ccc(NC(=O)CSc2nc3c(oc4ccccc43)c(=O)n2-c2ccccc2)cc1OC,,inactive: -12.4%
CC(C)Cc1ccc(C(=O)NCCOc2ccccc2)o1,"inconclusive: 0.461 µM [activator, partial curve, poor fit]",
CC(=O)N1CCCc2cc(S(=O)(=O)Nc3ccc(C)c(C)c3)ccc21,"inconclusive: 16.4 µM [falling, single point]",
COc1ccc(OC)c(NC(=O)c2cccnc2Sc2cc(C)ccc2C)c1,"inconclusive: 14.6 µM [falling, partial curve]",
O=C(Nc1ccc(-c2csc(Nc3cccc(C(F)(F)F)c3)n2)cc1)c1cccc(C(F)(F)F)c1,"inconclusive: 20.6 µM [falling, single point]",
C=C1CCC[C@]2(C)C[C@H]3OC(=O)C(CNCC(C)C)[C@H]3CC12 (stereo partly drawn),"inconclusive: 23.1 µM [activator, partial curve, poor fit]",
CC(C)=CCN1CCN(Cc2cccc3nonc23)CC1CCO (stereo not drawn),"inconclusive: 11.6 µM [activator, partial curve, poor fit]",
O=C(COc1cccc(Cl)c1)N1CCC(c2nc3ccccc3o2)CC1,,inactive: -13.4%
COC(=O)c1cc2c(ccn2-c2ccc(F)cc2)n1C(C)C,,inactive: 6.96%
Cc1cccc(C)c1NC(=O)COC(=O)CCC(=O)c1cccs1,"inconclusive: 1.3 µM [activator, full curve, poor fit]",
Cn1c(C(=O)Nc2ccc3c(c2)OCO3)cc2sccc21,"inconclusive: 2.31 µM [activator, full curve]",
O=C(NCc1ccccc1Cl)C1CCCN(C(=O)c2cnn(-c3ccc(F)cc3)c2-n2cccc2)C1 (stereo not drawn),,inactive: -4.88%
COc1cc(NC(=O)c2cccs2)ccc1NC(=O)c1cc2ccccc2o1,"inconclusive: 23.1 µM [falling, single point]",
NC(=O)c1c(NC(=O)C2CCCO2)sc2c1CCCCC2 (stereo not drawn),"inconclusive: 10.3 µM [activator, partial curve, poor fit]",
Cc1nc2c(-c3ccccc3)c(C)nn2c(C)c1CCC(=O)NCCc1ccccc1,"inconclusive: 29.1 µM [falling, single point]",

# Shown as tab-separated lines: part of the list above.
SMILES	Potency	activity change, negative = inhibition
COc1ccc(NC(=O)CSc2nc3c(oc4ccccc43)c(=O)n2-c2ccccc2)cc1OC		inactive: -12.4%
CC(C)Cc1ccc(C(=O)NCCOc2ccccc2)o1	inconclusive: 0.461 µM [activator, partial curve, poor fit]	
CC(=O)N1CCCc2cc(S(=O)(=O)Nc3ccc(C)c(C)c3)ccc21	inconclusive: 16.4 µM [falling, single point]	
COc1ccc(OC)c(NC(=O)c2cccnc2Sc2cc(C)ccc2C)c1	inconclusive: 14.6 µM [falling, partial curve]	

# Continuation:

SMILES,Potency,"activity change, negative = inhibition"
CC(Oc1ccc(-c2ccccc2)c(F)c1)c1ccn(S(=O)(=O)c2ccc(Cl)cc2)n1 (stereo not drawn),"inconclusive: 29.1 µM [falling, single point]",
Cc1ccc(C(=O)CC(=O)c2ccccc2)cc1,"inconclusive: 9.2 µM [activator, partial curve]",
COc1ccc2cc[nH]c2c1,,inactive: -5.08%
CCCCOC(=O)CSC1=C(C#N)C(c2ccccc2OCC)C(C#N)C(=O)N1 (stereo not drawn),active: 10.3 µM,
COc1ccc(OC)c(NC(=O)CN(c2ccc(C)cc2)S(=O)(=O)c2c(C)n[nH]c2C)c1,"inconclusive: 20.6 µM [falling, single point]",
CC(C)c1ccc(NC(=O)N2CCN(c3ccc(Cl)c(Cl)c3)CC2)cc1,"inconclusive: 20.6 µM [falling, single point]",
CCN1CCc2c(sc(-n3cccc3)c2C(C)NC(=O)Nc2cc(Cl)c(OC)cc2OC)C1 (stereo not drawn),"inconclusive: 14.6 µM [activator, partial curve]",
O=C(/C=C/c1ccccc1Cl)Nc1cccc(O)c1,,inactive: 0.613%
CN(C)c1cc[n+](CC(=O)Nc2ccc([N+](=O)[O-])cc2Cl)cc1,"inconclusive: 9.2 µM [falling, partial curve]",
CN(C(=O)COC(=O)/C=C/c1cccc([N+](=O)[O-])c1)C1CCS(=O)(=O)C1 (stereo not drawn),"inconclusive: 18.4 µM [falling, partial curve]",
O=C(NN1CC(C(=O)OCc2ccc(Cl)cc2Cl)CC1=O)c1ccccc1 (stereo not drawn),"inconclusive: 3.26 µM [activator, partial curve, poor fit]",
Cn1cc(C(c2ccccn2)c2cn(C)c3ccccc23)c2ccccc21,"inconclusive: 15.8 µM [falling, single point]",
CCCNC(=O)c1cnn2c(C(F)F)cc(-c3ccccc3)nc12,active: 23.1 µM,
CNc1nc(Nc2ccc(C)c(Cl)c2)nc(N)c1[N+](=O)[O-],"inconclusive: 4.61 µM [activator, partial curve]",
COc1ccc(CCNc2oc(COc3cccc(C)c3)nc2C#N)cc1OC,"inconclusive: 29.1 µM [falling, single point]",
CC(NC(=O)CN1C(=O)NC2(CCCC2)C1=O)c1ccc(Cl)cc1Cl (stereo not drawn),"inconclusive: 5.17 µM [falling, partial curve, poor fit]",
CCOC(=O)Cn1c(S(=O)(=O)Cc2ccc(Cl)cc2)nc(-c2ccccc2)c1-c1ccccc1,"inconclusive: 20.6 µM [falling, partial curve, poor fit]",
c1ccc(C2Nc3ccccc3-c3nc4ccccc4n32)cc1 (stereo not drawn),"inconclusive: 5.17 µM [falling, partial curve, poor fit]",
Cc1ccc(NC(=O)c2cccc(S(=O)(=O)Nc3c(C)n(C)n(-c4ccccc4)c3=O)c2)cc1C,"inconclusive: 4.61 µM [falling, partial curve, poor fit]",
Cc1ccc2nc(-c3ccc(SCC(=O)Nc4ccc5c(c4)OCCO5)nc3)[nH]c2c1,"inconclusive: 13 µM [activator, partial curve]",
O=S(=O)(c1cccc(C(F)(F)F)c1)N1CCN(c2nc(-c3ccccc3)nc3ccccc23)CC1,"inconclusive: 29.1 µM [activator, single point]",
